Source: PubChem BioAssay AID1259405 (NCATS, 2018)

Purpose: 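Silenced genes that increase secreted GFP made by CHO cells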 (primary screen)
System: Chinese hamster CHO-K1 ovary cells with stable secreted eGFP expression
Reagents: single siRNA against mouse genes, 0.8 pmol siRNA per well (2 µl of 400 nM stock)
Duration: 3 days
Read-out: 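Percent of the per-plate non-targeting control median for intracellular GFP per well by laser scanning cytometry and for cell viability by ATP luminescence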
Reading the numbers: GFP, % of control: higher = more GFP per well, higher productivity; viability (ATP), % of control: higher = more viable cells (more ATP)
Call rule: 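Called active when intracellular GFP, relative to negative control, is at or above 120%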
Here is a random part of about 50,000 reagents. About 4,000 of all reagents (8%) were called active. 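Mouse siRNA library applied to hamster cells; one well for each siRNA.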 The numbers tell different reagents against one gene apart. Reagent sequences are not shown.

With Trappc2 (trafficking protein particle complex 2) #1, what does the deposit list?
GFP, % of control: 50; viability (ATP), % of control: 57.5; Call: inactive

What did the screen give for Trappc2 (trafficking protein particle complex 2) #2?
GFP, % of control: 80.6; viability (ATP), % of control: 91.6; Call: inactive

With Trappc2 (trafficking protein particle complex 2) #3, what does the deposit list?
GFP, % of control: 68.9; viability (ATP), % of control: 71.9; Call: inactive

For Preb (prolactin regulatory element binding) #1, what does the deposit list?
GFP, % of control: 79; viability (ATP), % of control: 67.8; Call: inactive

With Preb (prolactin regulatory element binding) #2, what was measured?
GFP, % of control: 97; viability (ATP), % of control: 64; Call: inactive

With Preb (prolactin regulatory element binding) #3, what does the deposit list?
GFP, % of control: 64.1; viability (ATP), % of control: 88.7; Call: inactive

A run of entries taken from the entries so far, for reference:
Trappc2 (trafficking protein particle complex 2) #2 — GFP, % of control: 80.6; viability (ATP), % of control: 91.6; Call: inactive
Trappc2 (trafficking protein particle complex 2) #3 — GFP, % of control: 68.9; viability (ATP), % of control: 71.9; Call: inactive

Next records follow.
How did the screen score Ryr1 (ryanodine receptor 1, skeletal muscle) #1?
GFP, % of control: 133; viability (ATP), % of control: 98.4; Call: active

For Ryr1 (ryanodine receptor 1, skeletal muscle) #2, what was measured?
GFP, % of control: 95.3; viability (ATP), % of control: 67.1; Call: inactive

What is on record for Ryr1 (ryanodine receptor 1, skeletal muscle) #3?
GFP, % of control: 65.2; viability (ATP), % of control: 60.5; Call: inactive

How did the screen score Tmprss11d (transmembrane protease, serine 11d) #1?
GFP, % of control: 67.3; viability (ATP), % of control: 89.1; Call: inactive

For Tmprss11d (transmembrane protease, serine 11d) #2, what was measured?
GFP, % of control: 34.2; viability (ATP), % of control: 46.5; Call: inactive

What is on record for Tmprss11d (transmembrane protease, serine 11d) #3?
GFP, % of control: 75.7; viability (ATP), % of control: 72.7; Call: inactive

What did the screen give for Or52z1 (olfactory receptor family 52 subfamily Z member 1) #1?
GFP, % of control: 82.6; viability (ATP), % of control: 91; Call: inactive

What is on record for Or52z1 (olfactory receptor family 52 subfamily Z member 1) #2?
GFP, % of control: 37.2; viability (ATP), % of control: 67.2; Call: inactive

Which result is listed for Or52z1 (olfactory receptor family 52 subfamily Z member 1) #3?
GFP, % of control: 56.7; viability (ATP), % of control: 119; Call: inactive

With Dusp28 (dual specificity phosphatase 28) #1, what does the deposit list?
GFP, % of control: 76.5; viability (ATP), % of control: 45.3; Call: inactive

With Dusp28 (dual specificity phosphatase 28) #2, what does the deposit list?
GFP, % of control: 129; viability (ATP), % of control: 69.2; Call: active

How did the screen score Dusp28 (dual specificity phosphatase 28) #3?
GFP, % of control: 80; viability (ATP), % of control: 85.2; Call: inactive
